Laboratory results taken from PubChem BioAssay AID248 (DTP/NCI, 2004).
The list shows only some results of the screen, not a fair sample: it gathers tests that were run many times, whatever their T/C, doses with no T/C, and many T/C values between a quarter and a half above the control. Other doses and runs of a compound stand elsewhere. T/C is the treated group as % of the vehicle group. Some doses have a count of surviving animals in place of a T/C: the source holds a T/C of zero for them, seemingly a mark for toxic or unscored doses. Some survivor counts are full or nearly so, which does not show that the dose was tolerated: the source hardly ever lists a survival T/C far under the control, and the zero likely stands for such cases as well. Counts of survivors are from the toxicity check (mostly the fifth day) where no day follows; animals may have died later. Schedules are NCI's codes, read here as Q, the interval in days (D) or hours (H), X, the number of doses. Where survival is the endpoint, this PubChem deposit counts one and a half times the control or more as active, and values a quarter to a half above the control carry no call in these data; other NCI protocols may use other cut-offs. Some T/C values carry the count of animals alive at the toxicity check (mostly the fifth day); without a count, all were alive then.

Tested on: L1210 leukemia ip in BDF1 mice, survival T/C
Test: NCI In Vivo Anticancer Drug Screen. Data for tumor model L1210 Leukemia (intraperitoneal) in B6D2F1 (BDF1) mice
Details: T/C endpoint: mean survival time, higher T/C = longer survival
[1] = dose: 400.0 mg/kg/injection, schedule: Q01DX001 (ip), vehicle: saline
[2] = dose: 200.0 mg/kg/injection, schedule: Q04DX003 (ip), vehicle: Klucel (hydroxypropylcellulose) (HPC)
[3] = dose: 400.0 mg/kg/injection, schedule: Q04DX003 (ip), vehicle: Klucel (hydroxypropylcellulose) (HPC)
[4] = dose: 200.0 mg/kg/injection, schedule: Q01DX001 (ip), vehicle: Klucel (hydroxypropylcellulose) (HPC)
[5] = dose: 400.0 mg/kg/injection, schedule: Q01DX001 (ip), vehicle: Klucel (hydroxypropylcellulose) (HPC)
[6] = dose: 200.0 mg/kg/injection, schedule: Q01DX009 (ip), vehicle: saline with Tween-80
[7] = dose: 400.0 mg/kg/injection, schedule: Q04DX003 (ip), vehicle: saline with Tween-80
[8] = dose: 400.0 mg/kg/injection, schedule: Q01DX009 (ip), vehicle: saline with Tween-80
[9] = dose: 200.0 mg/kg/injection, schedule: Q04DX002 (ip), vehicle: saline

COC(=O)/C=C(\C)Nc1ccc(Cc2ccc(NC(C)=O)cc2)cc1
survivor count [1]: 3 of 6

CS(=O)(=O)OCCN(CCOS(C)(=O)=O)c1ccc(C=Nc2cccc(Br)c2)cc1
T/C (dose: 20.0 mg/kg/injection, schedule: Q04DX003 (ip), vehicle: Klucel (hydroxypropylcellulose) (HPC)): 143 % of control
T/C (dose: 40.0 mg/kg/injection, schedule: Q04DX003 (ip), vehicle: Klucel (hydroxypropylcellulose) (HPC)): 145 % of control
survivor count (dose: 80.0 mg/kg/injection, schedule: Q04DX003 (ip), vehicle: Klucel (hydroxypropylcellulose) (HPC)): 6 of 6
survivor count [2]: 4 of 6
survivor count [3]: 4 of 6

CC(C)C(C)(O)C(N)=O (centres undefined)
survivor count [1]: 4 of 4

COc1ccc(/C(=N/Nc2ccccc2)C(C)C(O)(C(F)(F)F)C(F)(F)F)cc1 (centres undefined)
survivor count [3]: 6 of 6

O=C1OC(c2ccccc2)(c2ccccc2)Cc2ccccc21
survivor count [2]: 6 of 6

CCN1CC1 (tested in a mixture with another compound)
survivor count (dose: 9.37 mg/kg/injection, schedule: Q01DX009 (ip), vehicle: Klucel (hydroxypropylcellulose) (HPC)): 0 of 6
T/C (dose: 12.5 mg/kg/injection, schedule: Q01DX001 (ip), vehicle: other): 126 % of control [5 of 6 alive]
survivor count (dose: 14.2 mg/kg/injection, schedule: Q01DX009 (ip), vehicle: Klucel (hydroxypropylcellulose) (HPC)): 0 of 6
survivor count (dose: 21.3 mg/kg/injection, schedule: Q01DX009 (ip), vehicle: Klucel (hydroxypropylcellulose) (HPC)): 0 of 6
survivor count (dose: 50.0 mg/kg/injection, schedule: Q01DX001 (ip), vehicle: other): 0 of 6
survivor count (dose: 100.0 mg/kg/injection, schedule: Q01DX001 (ip), vehicle: Klucel (hydroxypropylcellulose) (HPC)): 0 of 6
survivor count [4]: 0 of 6
survivor count [5]: 0 of 6

O=NN(CCCl)C(=O)N[C@@H]1CCC[C@@H](O)C1
T/C (dose: 8.0 mg/kg/injection, schedule: Q01DX001 (ip), vehicle: saline with Tween-80): 125 % of control
T/C (dose: 67.0 mg/kg/injection, schedule: Q01DX001 (ip), vehicle: saline with Tween-80): 146 % of control
survivor count (dose: 100.0 mg/kg/injection, schedule: Q01DX001 (ip), vehicle: saline with Tween-80): 10 of 10
survivor count (dose: 150.0 mg/kg/injection, schedule: Q01DX001 (ip), vehicle: saline with Tween-80): 9 of 10

O=[N+]([O-])/C=C/c1ccc2ccccc2n1
survivor count (dose: 25.0 mg/kg/injection, schedule: Q01DX009 (ip), vehicle: saline with Tween-80): 6 of 6
survivor count (dose: 100.0 mg/kg/injection, schedule: Q01DX009 (ip), vehicle: saline with Tween-80): 0 of 6
survivor count [6]: 0 of 6
survivor count [7]: 1 of 6

O=C1c2ccccc2C(=O)c2c(O)c3c(c(O)c21)CCCC3OC1OC(CO)C(O)C(O)C1O (centres undefined)
survivor count (dose: 100.0 mg/kg/injection, schedule: Q01DX001 (ip), vehicle: saline): 4 of 4
survivor count (dose: 200.0 mg/kg/injection, schedule: Q01DX001 (ip), vehicle: saline): 4 of 4

O=[N+]([O-])c1ccc(NS(=O)(=O)c2ccc(Cl)c(Cl)c2)cc1
survivor count (dose: 50.0 mg/kg/injection, schedule: Q01DX009 (ip), vehicle: gum acacia): 5 of 6
survivor count (dose: 100.0 mg/kg/injection, schedule: Q01DX001 (ip), vehicle: other): 2 of 6
survivor count (dose: 200.0 mg/kg/injection, schedule: Q01DX001 (ip), vehicle: other): 1 of 6
survivor count (dose: 400.0 mg/kg/injection, schedule: Q01DX001 (ip), vehicle: other): 0 of 6

O=NN(CCCl)C(=O)N[C@H]1CCCC[C@H]1Cl
T/C (dose: 8.0 mg/kg/injection, schedule: Q01DX001 (ip), vehicle: carboxymethylcellulose (CMC)): 127 % of control
T/C (dose: 18.0 mg/kg/injection, schedule: Q01DX001 (ip), vehicle: carboxymethylcellulose (CMC)): 127 % of control
T/C (dose: 26.0 mg/kg/injection, schedule: Q01DX001 (ip), vehicle: carboxymethylcellulose (CMC)): 144 % of control
survivor count (dose: 250.0 mg/kg/injection, schedule: Q01DX001 (ip), vehicle: carboxymethylcellulose (CMC)): 6 of 6
survivor count (dose: 375.0 mg/kg/injection, schedule: Q01DX001 (ip), vehicle: carboxymethylcellulose (CMC)): 5 of 6
survivor count (dose: 500.0 mg/kg/injection, schedule: Q01DX001 (ip), vehicle: carboxymethylcellulose (CMC)): 6 of 6

CCC(C)P(=O)(N1CC1)N1CC1 (centres undefined)
survivor count (dose: 64.0 mg/kg/injection, schedule: Q01DX015 (ip), vehicle: carboxymethylcellulose (CMC)): 6 of 6

Clc1ccccc1Nc1ccnc(SCc2ccccc2)n1
survivor count (dose: 200.0 mg/kg/injection, schedule: Q01DX001 (ip), vehicle: DMSO): 5 of 6
survivor count (dose: 400.0 mg/kg/injection, schedule: Q01DX001 (ip), vehicle: DMSO): 6 of 6

COc1cc(N=Nc2ccccc2C(=O)O)ccc1O
survivor count [8]: 2 of 6

O=c1ccoc(-c2cc(=O)cco2)c1
survivor count (dose: 100.0 mg/kg/injection, schedule: Q04DX003 (ip), vehicle: saline with Tween-80): 3 of 6
survivor count (dose: 200.0 mg/kg/injection, schedule: Q04DX003 (ip), vehicle: saline with Tween-80): 0 of 6
survivor count [7]: 1 of 6

CC1(C)C/C(=N/O)C/C(=N\O)C1
survivor count (dose: 100.0 mg/kg/injection, schedule: Q04DX003 (ip), vehicle: Klucel (hydroxypropylcellulose) (HPC)): 0 of 6

Cc1ccc2c(c1)CC=CO2
survivor count [6]: 6 of 6
survivor count (dose: 400.0 mg/kg/injection, schedule: Q01DX009 (ip), vehicle: carboxymethylcellulose (CMC)): 6 of 6
survivor count (dose: 800.0 mg/kg/injection, schedule: Q01DX009 (ip), vehicle: carboxymethylcellulose (CMC)): 0 of 6

CCCCOc1ccc(OCCCCCCCCCC[N+](C)(C)C)cc1
T/C (dose: 6.25 mg/kg/injection, schedule: Q04DX002 (ip), vehicle: saline): 144 % of control
survivor count (dose: 25.0 mg/kg/injection, schedule: Q04DX002 (ip), vehicle: saline): 0 of 3
survivor count (dose: 50.0 mg/kg/injection, schedule: Q04DX002 (ip), vehicle: saline): 0 of 3
survivor count (dose: 100.0 mg/kg/injection, schedule: Q04DX002 (ip), vehicle: saline): 1 of 3
survivor count [9]: 0 of 3

CC1CCCCN1C(=O)c1ccccc1C(=O)O (centres undefined)
survivor count (dose: 400.0 mg/kg/injection, schedule: Q04DX002 (ip), vehicle: Klucel (hydroxypropylcellulose) (HPC)): 1 of 3

OC1C2(CCCCC2)CNC12C=CCCC2 (centres undefined)
survivor count (dose: 300.0 mg/kg/injection, schedule: Q01DX001 (ip), vehicle: saline): 2 of 6

CC(C)C(=O)Nc1cccc(O)c1
survivor count [8]: 3 of 6

CSC12OCC(O1)C1OC(C)(C)OC(C=O)C1O2 (centres undefined)
survivor count [9]: 3 of 3

CC1(C)CS(=O)(=O)CC(C)(C)C(=O)C1=O
survivor count [4]: 3 of 6
survivor count [5]: 0 of 6
